Results on three molecules are retold here after article PMC10085685.

These are yes or no findings as the source states them, for the method shown. A result given as binding can be weak or reduced; the word gives no strength. Sequences can lack the tags named with a protein.

Common to all, as to test: two-hybrid; Gal4-based system (Clontech), haploid strains AH109 and Y187 mated to a diploid strain; pGADT7-GW / PACT2 AD and pGBKT7(-GW) fusions
Assay [1] addresses T1, AtFANCE, yeast two-hybrid fusion (Arabidopsis thaliana) (UniProt Q9SU89).
T1 sequence: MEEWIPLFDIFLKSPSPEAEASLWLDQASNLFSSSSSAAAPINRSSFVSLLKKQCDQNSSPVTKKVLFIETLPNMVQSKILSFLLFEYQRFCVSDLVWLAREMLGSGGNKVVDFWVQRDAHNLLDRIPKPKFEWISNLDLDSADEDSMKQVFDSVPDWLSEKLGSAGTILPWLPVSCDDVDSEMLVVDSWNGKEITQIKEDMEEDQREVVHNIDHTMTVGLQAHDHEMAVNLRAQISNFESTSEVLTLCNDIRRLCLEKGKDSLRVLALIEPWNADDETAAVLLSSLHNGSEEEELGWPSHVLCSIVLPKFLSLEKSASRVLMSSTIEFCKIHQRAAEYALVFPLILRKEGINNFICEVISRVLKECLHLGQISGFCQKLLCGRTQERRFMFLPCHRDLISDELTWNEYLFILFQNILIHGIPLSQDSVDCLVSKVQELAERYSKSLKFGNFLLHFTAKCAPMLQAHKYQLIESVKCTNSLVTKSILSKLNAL

Assay [2] deals with T2, AtMHF2, yeast two-hybrid fusion (Arabidopsis thaliana) (UniProt Q8L7N3).
T2 sequence: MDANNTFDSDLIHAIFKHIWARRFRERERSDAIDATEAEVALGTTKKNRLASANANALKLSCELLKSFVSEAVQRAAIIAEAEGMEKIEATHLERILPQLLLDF

Assay [3] addresses AtFANCF, yeast two-hybrid fusion (Arabidopsis thaliana) (UniProt F4K7F0).

Turning to “AtFANCC (At3g60310), yeast two-hybrid fusion (Arabidopsis thaliana)”, the binding entry in assay [1] and in assay [2] was “binds” each time.

Regarding “AtFANCF, yeast two-hybrid fusion (from UniProt F4K7F0)”, the binding result in assay [2] is reported as “binds”.

B1: AtFANCE, yeast two-hybrid fusion (protein, UniProt Q9SU89 1-493)
chain: MEEWIPLFDIFLKSPSPEAEASLWLDQASNLFSSSSSAAAPINRSSFVSLLKKQCDQNSSPVTKKVLFIETLPNMVQSKILSFLLFEYQRFCVSDLVWLAREMLGSGGNKVVDFWVQRDAHNLLDRIPKPKFEWISNLDLDSADEDSMKQVFDSVPDWLSEKLGSAGTILPWLPVSCDDVDSEMLVVDSWNGKEITQIKEDMEEDQREVVHNIDHTMTVGLQAHDHEMAVNLRAQISNFESTSEVLTLCNDIRRLCLEKGKDSLRVLALIEPWNADDETAAVLLSSLHNGSEEEELGWPSHVLCSIVLPKFLSLEKSASRVLMSSTIEFCKIHQRAAEYALVFPLILRKEGINNFICEVISRVLKECLHLGQISGFCQKLLCGRTQERRFMFLPCHRDLISDELTWNEYLFILFQNILIHGIPLSQDSVDCLVSKVQELAERYSKSLKFGNFLLHFTAKCAPMLQAHKYQLIESVKCTNSLVTKSILSKLNAL
In the case of B1, the binding entry in assay [3] is recorded as “binds”.
